Laboratory results: patent US20190322766A1
Changes are numbered by the printed parent chain. Results are given in words; binding and its absence hold for the method and conditions named. Some results given as binding are weak or reduced against the parent protein; the word gives no strength. Each block holds one binder with its values, some of them ahead of it.

Molecular target: T1, peptides containing sequence … (Pepscan array, linear and single loop) (human)
T1 sequence (peptide): YQCRVTHPHLPRALM
Assay: Pepscan CLIPS peptide array

- binding: binds
B1: hLAAIGE E17 (antibody, human IgG1, kappa, V domains shown)
VH: QVQLVQSGSELKKPGASVKVSCKASGYTFTNYGMNWVRQAPGQGLEWMGWINTYTGEPTYADDFKGRFVFSLDTSVSTAYLQISSLKAEDTAVYYCARGAASHTMDYWGQGTTVTVSS
VL: DIVMTQSPDSLAVSLGERATINCRASQSVSTSSHAYMHWYQQKPGQPPKLLIYYASNLESGVPDRFSGSGSGTDFTLTISSLQAEDVAVYYCQHSWEIPWTFGQGTKLEIKR

- binding: binds
B2: hLAAIGE E59 (antibody, human IgG1, kappa, V domains shown)
VH: B1 VH
VL: B1 VL with A35S
